The target in assay [1] is T1, IFNAR2 chain of the type I interferon receptor (IFNAR) (human (endogenous in PBMC)) (UniProt P48551).
T1 sequence: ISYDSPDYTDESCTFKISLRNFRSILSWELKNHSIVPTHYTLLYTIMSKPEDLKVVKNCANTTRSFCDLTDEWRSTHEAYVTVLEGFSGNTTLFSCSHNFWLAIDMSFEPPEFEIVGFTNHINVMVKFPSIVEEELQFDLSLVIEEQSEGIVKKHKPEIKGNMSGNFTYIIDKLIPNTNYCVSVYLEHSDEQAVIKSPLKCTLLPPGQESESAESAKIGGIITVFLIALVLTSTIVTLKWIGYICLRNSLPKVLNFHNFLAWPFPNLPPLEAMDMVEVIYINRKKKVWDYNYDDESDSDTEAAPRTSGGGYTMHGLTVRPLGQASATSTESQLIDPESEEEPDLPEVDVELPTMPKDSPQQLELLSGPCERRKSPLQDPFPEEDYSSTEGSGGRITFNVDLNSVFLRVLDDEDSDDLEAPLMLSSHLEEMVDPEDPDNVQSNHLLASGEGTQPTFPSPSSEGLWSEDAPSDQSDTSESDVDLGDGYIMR
The assay can be described thus: co-IP; lysates (50 µg total protein) of PBMC from SLE patients or healthy controls, cultured in medium alone or with 50 U/ml IFNβ for 0, 30 min, 1 h and 4 h; incubated overnight at 4°C with mouse anti-IFNAR1 (protein A-Sepharose 4B) and/or rabbit anti-IFNAR2 (protein G-Sepharose 4B); blotted for SOCS1, STAT2, Jak1 and Tyk2.

The chains behind the UniProt entries cited, without tags or fusion partners. Residues count along the entry.
UniProt P17181, residues 28-557: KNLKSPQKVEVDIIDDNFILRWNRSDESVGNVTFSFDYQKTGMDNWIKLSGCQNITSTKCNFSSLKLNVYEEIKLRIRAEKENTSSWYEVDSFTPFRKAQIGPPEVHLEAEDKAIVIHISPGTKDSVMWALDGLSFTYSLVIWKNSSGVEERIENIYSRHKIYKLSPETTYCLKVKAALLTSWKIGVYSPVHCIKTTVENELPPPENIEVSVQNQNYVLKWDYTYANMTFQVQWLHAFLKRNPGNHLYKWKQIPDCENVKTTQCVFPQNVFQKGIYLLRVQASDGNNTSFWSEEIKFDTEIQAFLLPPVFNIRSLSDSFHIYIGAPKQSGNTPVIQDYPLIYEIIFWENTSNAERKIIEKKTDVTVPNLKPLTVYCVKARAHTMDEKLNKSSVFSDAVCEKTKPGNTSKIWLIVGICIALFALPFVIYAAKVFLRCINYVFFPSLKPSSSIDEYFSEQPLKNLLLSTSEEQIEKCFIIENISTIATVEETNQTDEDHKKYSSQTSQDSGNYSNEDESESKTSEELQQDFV
UniProt P52630: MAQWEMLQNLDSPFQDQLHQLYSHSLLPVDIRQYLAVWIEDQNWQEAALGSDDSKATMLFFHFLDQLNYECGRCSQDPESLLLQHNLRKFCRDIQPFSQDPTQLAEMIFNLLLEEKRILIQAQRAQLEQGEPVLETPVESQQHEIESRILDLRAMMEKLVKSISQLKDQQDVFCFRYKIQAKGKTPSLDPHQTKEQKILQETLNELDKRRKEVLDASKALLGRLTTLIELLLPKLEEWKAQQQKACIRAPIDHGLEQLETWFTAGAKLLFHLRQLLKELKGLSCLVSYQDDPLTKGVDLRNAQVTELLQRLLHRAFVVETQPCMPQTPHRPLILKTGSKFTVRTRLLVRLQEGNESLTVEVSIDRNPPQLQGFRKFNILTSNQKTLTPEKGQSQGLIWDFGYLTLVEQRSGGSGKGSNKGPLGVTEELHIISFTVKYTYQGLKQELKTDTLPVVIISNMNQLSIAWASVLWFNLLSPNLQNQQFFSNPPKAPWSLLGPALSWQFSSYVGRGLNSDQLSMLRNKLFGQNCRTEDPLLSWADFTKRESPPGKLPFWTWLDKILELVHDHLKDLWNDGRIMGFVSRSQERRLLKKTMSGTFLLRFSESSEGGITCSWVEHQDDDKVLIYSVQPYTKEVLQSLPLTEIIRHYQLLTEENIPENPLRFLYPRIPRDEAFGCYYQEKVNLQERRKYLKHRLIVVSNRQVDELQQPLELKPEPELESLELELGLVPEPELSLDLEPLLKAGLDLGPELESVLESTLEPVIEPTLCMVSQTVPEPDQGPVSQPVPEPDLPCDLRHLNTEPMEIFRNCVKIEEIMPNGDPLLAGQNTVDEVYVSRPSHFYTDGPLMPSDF
UniProt P29597: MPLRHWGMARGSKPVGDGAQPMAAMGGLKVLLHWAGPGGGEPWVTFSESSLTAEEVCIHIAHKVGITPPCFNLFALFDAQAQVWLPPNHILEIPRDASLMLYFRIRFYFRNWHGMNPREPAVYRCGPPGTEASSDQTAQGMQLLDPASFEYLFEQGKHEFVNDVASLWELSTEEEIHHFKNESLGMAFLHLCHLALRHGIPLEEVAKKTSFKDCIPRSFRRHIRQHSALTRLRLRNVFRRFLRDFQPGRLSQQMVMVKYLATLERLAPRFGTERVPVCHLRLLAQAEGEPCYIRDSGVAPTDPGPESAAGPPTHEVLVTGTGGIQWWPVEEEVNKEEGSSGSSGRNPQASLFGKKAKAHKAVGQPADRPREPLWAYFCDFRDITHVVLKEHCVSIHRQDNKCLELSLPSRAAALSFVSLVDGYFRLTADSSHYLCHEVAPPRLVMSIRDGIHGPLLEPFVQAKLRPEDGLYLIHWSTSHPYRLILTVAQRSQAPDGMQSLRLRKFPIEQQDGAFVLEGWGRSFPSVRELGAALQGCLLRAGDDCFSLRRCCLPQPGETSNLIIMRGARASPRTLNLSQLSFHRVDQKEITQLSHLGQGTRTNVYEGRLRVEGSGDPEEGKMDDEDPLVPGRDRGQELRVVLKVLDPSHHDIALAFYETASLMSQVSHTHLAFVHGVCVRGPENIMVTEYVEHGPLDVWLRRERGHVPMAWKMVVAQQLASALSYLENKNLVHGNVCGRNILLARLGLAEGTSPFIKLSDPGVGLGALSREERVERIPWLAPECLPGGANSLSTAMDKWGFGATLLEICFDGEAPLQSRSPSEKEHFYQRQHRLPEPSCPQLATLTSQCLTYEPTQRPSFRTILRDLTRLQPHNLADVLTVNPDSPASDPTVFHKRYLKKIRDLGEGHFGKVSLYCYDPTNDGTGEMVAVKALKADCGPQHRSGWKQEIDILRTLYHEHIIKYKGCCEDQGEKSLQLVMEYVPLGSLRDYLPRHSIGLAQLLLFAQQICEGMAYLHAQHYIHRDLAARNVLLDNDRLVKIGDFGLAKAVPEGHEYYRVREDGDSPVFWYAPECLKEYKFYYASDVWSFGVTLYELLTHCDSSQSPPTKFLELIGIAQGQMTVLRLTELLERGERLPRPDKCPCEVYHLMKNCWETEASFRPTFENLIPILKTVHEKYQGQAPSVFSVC

The target in assay [2] is IFNAR1 chain of the type I interferon receptor (IFNAR) (human (endogenous in PBMC)) (UniProt P17181). Described as above.
For assay [3], the target named is T1, IFNAR2 chain of the type I interferon receptor (IFNAR) (human (endogenous in PBMC)). The assay can be described thus: co-IP; as a1, but only unstimulated PBMC (time 0, no IFNβ added); lysate precipitated with rabbit anti-IFNAR2 and protein G-Sepharose 4B, blotted for SOCS1.

These are yes or no findings as the source states them, for the method shown. In cells and extracts the contact can be indirect. Some binding calls cover weakened binding; strength is not graded here.

As to “signal transduction and activator of transcription 2 (STAT2) (from UniProt P52630 1-851)”, the binding result in assay [1] was “binds”.
Take “Janus kinase Tyk2 (from UniProt P29597 1-1187) (enzyme)”: the binding entry in assay [2] is “binds”.

B1: suppressor of cytokine signaling 1 (SOCS1) (natural protein, human (endogenous in PBMC), UniProt O15524 1-211, looked up)
chain: MVAHNQVAADNAVSTAAEPRRRPEPSSSSSSSPAAPARPRPCPAVPAPAPGDTHFRTFRSHADYRRITRASALLDACGFYWGPLSVHGAHERLRAEPVGTFLVRDSRQRNCFFALSVKMASGPTSIRVHFQAGRFHLDGSRESFDCLFELLEHYVAAPRRMLGAPLRQRRVRPLQELCRQRIVATVGRENLARIPLNPVLRDYLSSFPFQI
notes: SOCS1, endogenous in human peripheral blood mononuclear cells; detected by blot with anti-SOCS1; source: endogenous, lysate of PBMC from SLE patients or healthy controls
Take B1: the binding entry in assay [3] is listed as “no binding (condition: unstimulated PBMC, without IFNβ)”; in assay [1], “binds”; in assay [2], “binds”.
